From the supplement of paper PMC10849652
Some of the results follow.

target: ZNF618 (UniProt B1ALC2); experiment: log2 fold change, soluble protein after heating vs DMSO (PISA); higher = thermal stabilisation; K562 cells, 10 uM, 30 min; active = over 0.2 and 3.5 SD of the protein, either way, in both replicates (recomputed)
Outline: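 Aliquots of K562 cells (2×10^6 cells/mL) treated with 10 μM compound for 30 min were heated for 3 min over 48°C-58°C. After pooling and extraction in PBS with 0.5% NP-40 at 4°C, soluble protein from a 21,000xg, 90 min spin was quantified by TMTpro 16plex LC-MS/MS with channel sums equalised. Thermal stability is expressed against control samples, from duplicates, as a log2 fold change.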

log2 fold change, inactive:
CCCc1cc(C)[nH]c(=O)c1CNC(=O)c1cc(-c2ccnc(N3CCN(C)CC3)c2)cc2c1cnn2C(C)C -0.34, Cc1cccc(-c2[nH]c(C(C)(C)C)nc2-c2ccc3nccnc3c2)n1 0.055, COc1cc2ncnc(Nc3ccc(F)c(Cl)c3)c2cc1OCCCN1CCOCC1 [gefitinib] 0.054, Cc1cc(Nc2cc(CN3CCOCC3)c3nc(C)c(Cc4ccc(Cl)cc4F)n3n2)n[nH]1 [gandotinib] 0.162, NC1(c2ccc(-c3nc4ccn5c(=O)[nH]nc5c4cc3-c3ccccc3)cc2)CCC1 -0.041, O=C1NC(=O)/C(=C\c2ccc3nccnc3c2)S1 0.132, CCN(CCCOc1ccc2c(Nc3cc(CC(=O)Nc4cccc(F)c4)[nH]n3)ncnc2c1)CCOP(=O)(O)O [barasertib] 0, Cc1ncc(-c2ccnc(Nc3ccc(S(C)(=O)=O)cc3)n2)n1C(C)C -0.047, Cc1cccc(CC(=O)N2CCc3c2ccc(-c2cn(C)c4ncnc(N)c24)c3F)n1 -0.068, COc1cccc2cc(-c3nc([C@H]4CC[C@H](C(=O)O)CC4)n4ncnc(N)c34)[nH]c12 0.016, Cc1ccc(NC(=O)c2ccc(CN3CC[C@H](N(C)C)C3)c(C(F)(F)F)c2)cc1Nc1nccc(-c2cncnc2)n1 [bafetinib] -0.221, CCn1cc(-c2ccnc3[nH]c(-c4cccc(CN(C)C)c4)cc23)c(-c2ccc(NC(=O)N(C)C)cc2)n1 -0.094
